Patent US20260022166A1
These are yes or no findings as the source states them, for the method shown. Some binding calls cover weakened binding; strength is not graded here.

B1: hu119-11 (antibody, human IgG1, kappa, V domains shown)
VH: EVQLVQSGAEVKKPGSSVKVSCKASGFTFSTYNMHWVKHAPGQGLEWIGAIYPGNGETSYNQKFKDRATLTVDKSTSTAYMELSSLRSEDTAVYYCAREDDYGEGYFDVWGQGTTVTVSS
VL: DIVMTQSPDSLAVSLGERATINCRASESVDNSGLSFMHWYQQKPGQPPKLLLYRASNLGSGIPDRFSGSGSGTDFTLTISSLQAEDVAVYYCQQINTDPLTFGQGTKLEIKR
B2: hu119-12 (antibody, human IgG1, kappa, V domains shown)
VH: EVQLVQSGAEVKKPGSSVKVSCKASGFTFSTYNMHWVKHAPGQGLEWIGAIYPGNGETSYNQKFKDRATLTVDKSTSTAYMELSSLRSEDTAVYYCAREDDYGEGYFDVWGQGTTVTVSS
VL: DIVMTQSPDSLAVSLGERATINCRASESVDNSGLSFMHWYQQKPGQPPKLLLYRASNLGSGIPDRFSGSGSGTDFTLTISSLQAEDVAVYYCQQINTDPLTFGQGTKLEIKR
B3: hu119-13 (antibody, human IgG1, kappa, V domains shown)
VH: EVQLVQSGAEVKKPGSSVKVSCKASGFTFSTYNMHWVKHAPGQGLEWIGAIYPGNGETSYNQKFKDRATLTVDKSTSTAYMELSSLRSEDTAVYYCAREDDYGEGYFDVWGQGTTVTVSS
VL: EIVLTQSPATLSLSPGERATLSCRASESVDNSGLSFMHWYQQKPGQAPRLLIYRASNLGSGIPARFSGSGSGTDFTLTISSLEPEDFAVYYCQQINTDPLTFGQGTKLEIKR
B4: hu119-28 (antibody, human IgG1, kappa, V domains shown)
VH: EVQLVQSGAEVKKPGSSVKVSCKASGFTFSTYNMHWVKHAPGQGLEWIGAIYPGNGETSYNQKFKDRATLTVDKSTSTAYMELSSLRSEDTAVYYCAREDDYGEGYFDVWGQGTTVTVSS
VL: DIVLTQSPDSLAVSLGERATINCRASESVDSSGLSFMHWYQQKPGQPPKLLIYRASNLGSGVPDRFSGSGSGTDFTLTISSLQAEDVAVYYCQQINTDPLTFGQGTKLEIKR
B5: hu119-29 (antibody, human IgG1, kappa, V domains shown)
VH: EVQLVQSGAEVKKPGSSVKVSCKASGFTFSTYNMHWVKHAPGQGLEWIGAIYPGNGETSYNQKFKDRATLTVDKSTSTAYMELSSLRSEDTAVYYCAREDDYGEGYFDVWGQGTTVTVSS
VL: DIVLTQSPDSLAVSLGERATINCRASESVDQSGLSFMHWYQQKPGQPPKLLIYRASNLGSGVPDRFSGSGSGTDFTLTISSLQAEDVAVYYCQQINTDPLTFGQGTKLEIKR

Experiments:
[1] = target: His-tagged human TSLP antigen (huTSLP-his) (human); test: ELISA
[2] = target: His-tagged human TSLP antigen (huTSLP-his) (human); test: ELISA, coated huTSLP-his

Binder	binding [1]	binding [2]
B1	binds	binds
B2	binds	binds
B3	binds	binds
B4	binds	binds
B5	binds	binds
